# Where “and” joins values, the source holds several entries; their conditions need not be identical. Identical values can stand only once. Inconclusive results, whose numbers are uncertain, are shown with a selection of clear calls. Potencies of inconclusive entries are doubtful fits and often do not repeat. Some compounds were tested as several samples or in several runs, with calls that do not always agree. Calls of active or inactive are those of the source. How the source made its calls: active means hit-call score of the fitted dose curve at least 0.9, where 1 is the maximum; inconclusive means response in the unintended direction; inactive means score below 0.9.
# Protein sequences, listed by entry. Tags and fused reporters are not part of them.
# UniProt P04637, whole entry, looked up: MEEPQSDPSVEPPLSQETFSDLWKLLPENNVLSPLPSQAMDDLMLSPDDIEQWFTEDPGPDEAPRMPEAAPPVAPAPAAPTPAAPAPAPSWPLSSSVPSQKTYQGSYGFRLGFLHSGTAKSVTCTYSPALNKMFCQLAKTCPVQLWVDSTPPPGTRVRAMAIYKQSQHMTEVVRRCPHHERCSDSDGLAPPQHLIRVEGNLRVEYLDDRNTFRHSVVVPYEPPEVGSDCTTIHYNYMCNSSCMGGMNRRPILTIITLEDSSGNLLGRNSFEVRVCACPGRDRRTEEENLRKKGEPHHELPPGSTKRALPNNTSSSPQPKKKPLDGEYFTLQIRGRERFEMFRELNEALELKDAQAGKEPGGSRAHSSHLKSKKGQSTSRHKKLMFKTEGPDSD
# Molecular target: Cellular tumor antigen p53 (Homo sapiens) (UniProt P04637)
# Experiment: TOX21_p53_BLA_p3_ratio: Tox21 HCT-116 p53 Agonism Beta-lactamase Assay, Ratio, Phase 3 (AID 2283596)
# Description: TOX21_p53_BLA_p3 is a cell-based, single-readout assay that uses HCT116, a human intestinal cell line, […] in a 1536-well plate.TOX21_p53_BLA_p3_ratio is an assay readout measuring reporter gene via receptor activity and designed using inducible reporter (beta lactamase induction) detected with GAL4 b-lactamase reporter gene. The signal is derived from the ratio of cleaved (ch2) to uncleaved (ch1) reporter gene substrate used as the measure of target activity.Data from the assay component TOX21_p53_BLA_p3_ratio was analyzed into 1 assay endpoint. This assay endpoint, TOX21_p53_BLA_p3_ratio, was analyzed in the positive analysis fitting direction relative to DMSO as the negative control and baseline of activity. Using a type of inducible reporter, gain-of-signal activity can be used to understand changes in the reporter gene as they relate to the gene TP53. Furthermore, this assay endpoint can be referred to as a primary readout, because this assay has produced multiple assay endpoints where this ratio serves a reporter gene function to understand target activity. To generalize the intended target to other relatable targets, this assay endpoint is annotated to the DNA binding intended target family, where the subfamily is tumor suppressor.
# Thawing Method: Place 14 mL of pre-warmed thaw medium into a 15 mL of conical tub. Remove the vial of cells to be thawed from liquid nitrogen and thaw rapidly by placing at 37C in a water bath with gentle agitation for 1-2 minutes. Decontaminate the vial by wiping with 70% ethanol before opening in a biological safety cabinet. Transfer the vial contents drop-wise into 14 mL of thaw medium in a sterile 15-mL conical tub. Centrifuge cells at 900 rpm for 4 minutes and resuspend in thaw medium. Transfer contents to the T75 tissue culture flask containing Thaw Medium and place flask in a humidified 37C/5% CO2 incubator. Switch to growth medium at first passage.Propagation Method: Aspirate medium, rinse once in DPBS, add 0.25% Trypsin/EDTA and swirl to coat the cell evenly. Add an equal volume of Growth Medium to inactivate Trypsin after 2-3 minutes incubation at 37C. Centrifuge cells at 900 rpm for 4 minutes and resuspend in growth medium. Cell should be passage or fed at least twice a week.Assay Protocol: Harvest cells from culture in growth medium and resuspend in assay medium. 2.2 Dispense 4000 cells/5 uL/well into 1536-well black/clear bottom plates using a Multidrop dispenser. After the cells were incubated at 37C for 5 hours, 23 nL of compounds dissolved in DMSO were transferred to the assay plate by a PinTool resulting in a 217-fold dilution. Incubate the plates for 16 hours at 37C, 5% CO2. Add 1 uL of 6X LiveBLAzer FRET B/G (CCF4-AM) Substrate Mixture to each well using a BioRAPTR dispenser and incubate the plates at room temperature for 2 hours. Measure fluorescence intensity at 460 and 530 nm emission and 405 nm excitation by an Envision detector. Data is expressed as the ratio of 460nm/530nm emissions. Add 4 uL of Cell-titer Glo to each well using BioRAPTR and incubate the plates at room temperature for 2 hours. Measure fluorescence intensity by a VewLux plate reader.
Compound,AC50,outcome
O=Nc1ccc(Nc2ccccc2)cc1,active: 77.1 µM and active: 61.3 µM,–
CN1CCCC1,inconclusive: 83.5 µM,–
NC(=O)NN=Cc1ccc([N+](=O)[O-])o1,inconclusive: 80.2 µM,–
O=[N+]([O-])C(CO)(CO)CO,inconclusive: 46.1 µM and inconclusive: 45.5 µM,–
CC(C)(C)C(=O)C(=O)O,inconclusive: 46.1 µM,–
CCCCOC(=O)c1ccc(O)cc1,inconclusive: 46.1 µM,–
CCCCCCCCCOC(C)=O,–,inactive
CC1(C)[C@@H]2CC[C@@]1(C)C(=O)C2,inconclusive: 46.1 µM,inactive
CCCCOCCOC(=O)COc1nc(Cl)c(Cl)cc1Cl,–,inactive
C=C(C)[C@@H]1CCC2=CCC[C@@H](C)[C@]2(C)C1,inconclusive: 83.1 µM,–
CCO[Si](CCCN)(OCC)OCC,inconclusive: 46.1 µM,–
CN(C)c1ccc(N=Nc2ccccc2C(=O)O)cc1,inconclusive: 46.1 µM,–
O=S(=O)(O)c1cc(S(=O)(=O)O)c2c(N=Nc3ccccc3)c(O)ccc2c1,inconclusive: 46.1 µM,inactive
C=CC(=O)NC(C)(C)CS(=O)(=O)O,inconclusive: 71 µM,–
O=C(O)Cc1ccccc1Nc1c(Cl)cccc1Cl,active: 86 µM,–
NC(=O)Cn1c(=O)cc(CCN2CCN(c3nccc4sccc34)CC2)c2ccc(F)cc21,inconclusive: 46.1 µM,–

Compound,AC50,outcome
OCC(O)c1ccccc1 (stereo not given),inconclusive: 46.1 µM,–
CN1CCN(Cc2cc(-c3ccc4[nH]c(=O)oc4c3)co2)[C@@H](c2ccc(F)cc2)C1,inconclusive: 40.6 µM,–
C[C@]12CC[C@@H]3c4ccc(O)cc4C[C@@H](CCCCCCCCCS(=O)CCCC(F)(F)C(F)(F)F)[C@H]3[C@@H]1CC[C@@H]2O (stereo not given in full),inconclusive: 29.6 µM,–
NS(=O)(=O)c1cc2c(cc1Cl)NCNS2(=O)=O,inconclusive: 46.1 µM and inconclusive: 45.5 µM,inactive
Nc1cccc(C(F)(F)F)c1,inconclusive: 80.9 µM,inactive
Cc1ccc([N+](=O)[O-])c(C)c1,inconclusive: 46.1 µM,–
CC(=O)c1ccc2c(c1)CCCC2,–,inactive
CC(C)=CCCC(C)C=O (stereo not given),inconclusive: 46.1 µM,–
C=C(C)c1cccc(C(C)(C)N=C=O)c1,inconclusive: 46.1 µM,–
CC(C)=CCCC(C)=CC=O,inconclusive: 46.1 µM,inactive
NCC1(Cc2noc(=O)[nH]2)CCCCC1,inconclusive: 46.1 µM,–
CC(=O)Oc1c(C)c(C)c2c(c1C)CC[C@@](C)(CCC[C@H](C)CCC[C@H](C)CCCC(C)C)O2,inconclusive: 46.1 µM and inconclusive: 23 µM,inactive
C1COCCN1,inconclusive: 48.6 µM,–
CCOC(=O)/C=C\C(=O)OCC,inconclusive: 46.1 µM,inactive
CCCOC(=O)c1cc(O)c(O)c(O)c1,inconclusive: 46.1 µM and inconclusive: 42.3 µM,–
CCOC(=O)CC(O)(CC(=O)OCC)C(=O)OCC,inconclusive: 46.1 µM,–
